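Viability assay of Plasmodium falciparum sporozoites; the read-out is not stated. The concentration is filed as 10 mM, unlikely as a test dose, so the dose is not known. Direction is inferred from retests: higher values go with lower viability. Strong results were mostly tested again. About 34,000 compounds were tested under these conditions; 0.84% (about 280) showed 50% or more at least once.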

Values are the deposited “Percent Effect”, in %.
The record does not define 0% and 100%; most values in the screen are far below 50% and negative numbers occur (in some assays of this library far below -100).
This is an unselected part of the compounds tested.
Two or more numbers in one place are separate tests of the same structure; such repeats can differ widely.

COc1ccccc1Oc1ncccc1CNC(=O)C(C)N1CCCC1 (stereo not shown) read -13.44%. With CC(CC1CC1)NCCCN1CCCN(C)CC1 (stereo not shown) the screen gave 5.359%. Result for Cc1cnn(C2CCCN(C(=O)c3ccccc3-n3cnnn3)C2)c1 (stereo not shown) was 1.4%. O=C1CCCN1CCCNCc1cc(O)c2cccc(F)c2n1 read -10.52%. CN1CCc2c(C#N)c(NCc3ccco3)n3cnnc3c2C1 gave 1.691%. Cn1cnc(-c2nc(C(=O)NCCN3CCOCC3)c3ccccn23)c1 gave 8.092%. Result for OCCNc1cc(-c2ccccc2)ncn1 was 7.197%.

Result for Cc1nc(C)n(CC2CN(Cc3nc4ccccc4s3)CCO2)n1 (stereo not shown) was -4.252% & 16.76% & -8.806%. Cc1cc(CC(=O)NC2CCCN(c3ccccc3Cl)C2=O)n[nH]1 (stereo not shown) gave -5.192%. O=C(O)C(F)(F)F.O=C(O)C(F)(F)F.[H][C@@]12COC[C@]1(COCc1ccncc1)CN(Cc1ccccc1OC)C2 gave 2.497%. COc1c(C)cnc(CN2CCn3c(nnc3C3CC3)C2)c1C gave -0.9516%. For OC1(Cn2ccc3ncccc32)CCN(Cc2cc(F)cc(F)c2)CC1 the result was -9.879%. With O=C(NCCCn1ccnc1)N1CCN(c2cccs2)CC1 the screen gave 1.422%. With Cc1ccc(CN2CCC3(CCN(S(=O)(=O)c4ccccc4)C3)C2)o1 (stereo not shown) the screen gave 2.224%.

COc1cccc(Nc2nc(C3CCNCC3)c3ccccn23)c1.Cl read 17.27% & 55.75% & -4.194%. Result for CC(C)N1CC(C(=O)NCc2ccc(S(=O)(=O)N(C)C)cc2)CC1=O (stereo not shown) was -2.137%. Cc1occc1C(=O)NCCOc1ccc(C(F)(F)F)cn1 read 2.829%. COc1ccccc1CC(=O)N1CCC(NCc2cc[nH]c2)CC1 gave 16.46%. With CCOc1ncccc1NC(=O)NC1CCCN(S(C)(=O)=O)C1 (stereo not shown) the screen gave 5.064%. With Cc1n[nH]c(C2CN(Cc3csc(C4CC4)n3)CCO2)n1 (stereo not shown) the screen gave -8.102%. For CC(C)N1CC[C@@](C)(O)[C@H](n2ccc(=O)[nH]c2=O)C1 the result was 1.006%.

O=C(NC1CCCC1)NC1CCC(C(=O)N2CCSCC2)CC1 (stereo not shown) gave -1.091%. c1cc(-c2nc(CN3CCc4c(ncn4C4CC4)C3)cs2)cs1 gave 57.35% & 45.82% & 61.3%. O=C(C1CCOC1)N1CC2(CCN(c3ccccc3)C2)C1 (stereo not shown) gave 2.654%. For COc1ccc(CC(=O)N2CCCC2Cn2cccn2)cc1F (stereo not shown) the result was -13.28%. O=C(c1ccc(N2CCOCC2)nc1)N1CCCC(n2cccn2)C1 (stereo not shown) gave -9.897%. For COc1ccc(C2CC(=O)Nc3c2nc2n3CCCC2)cc1O (stereo not shown) the result was 6.133%. For CC(C)c1ccc(C(C)NC(=O)N2CCC(n3cncn3)CC2)cc1 (stereo not shown) the result was -4.852%.

With NC(=O)c1csc(N2CCCC(c3n[nH]c(=O)n3-c3ccccc3)C2)n1 (stereo not shown) the screen gave 7.358%. Result for Cc1cnn(CC2CCCCN2Cc2cnc(C)s2)c1 (stereo not shown) was 4.375%. For [H][C@@]12CS(=O)(=O)C[C@]1([H])N(C(=O)Cc1ccc(O)c(Cl)c1)CCN2CC1CC1 the result was 12.09%. Cc1nn(C)c(C)c1CNCc1ccc(N2CCOCC2)nc1.Cl read -9.069%. For CN(Cc1ccsc1)C(=O)CNC(=O)N1CCc2ccccc2C1 the result was -9.615%. With CC1(C)CC(N2Cc3nc(N4CCOCC4)ncc3C2=O)CC(C)(C)N1 the screen gave -3.272%. Cc1cnn(C2CCCN(C(=O)c3ccc(C(N)=O)cn3)C2)c1 (stereo not shown) read 8.068%.

With O=S(=O)(C1CC1)N1CCC2(CCCN(Cc3ccccn3)C2)CC1 the screen gave 5.026%.

Some entries from above, unchanged:

compound	Percent Effect
O=C(NC1CCCC1)NC1CCC(C(=O)N2CCSCC2)CC1 (stereo not shown)	-1.091
Cc1cc(CC(=O)NC2CCCN(c3ccccc3Cl)C2=O)n[nH]1 (stereo not shown)	-5.192
Cc1cnn(C2CCCN(C(=O)c3ccc(C(N)=O)cn3)C2)c1 (stereo not shown)	8.068
CC1(C)CC(N2Cc3nc(N4CCOCC4)ncc3C2=O)CC(C)(C)N1	-3.272

Measurements from “University of Dundee, Small-Polar-MMV Screening Library” (2021), ChEMBL document CHEMBL3988442.